From PMC4359308
No constants are given. Whether binding was seen depends on the method and setting. In cells and extracts the contact can be indirect. Some results given as binding are weak or reduced against the parent protein; the word gives no strength.

Sequences of proteins named here, by UniProt entry; tags and fusion partners are left off.
UniProt Q8N122: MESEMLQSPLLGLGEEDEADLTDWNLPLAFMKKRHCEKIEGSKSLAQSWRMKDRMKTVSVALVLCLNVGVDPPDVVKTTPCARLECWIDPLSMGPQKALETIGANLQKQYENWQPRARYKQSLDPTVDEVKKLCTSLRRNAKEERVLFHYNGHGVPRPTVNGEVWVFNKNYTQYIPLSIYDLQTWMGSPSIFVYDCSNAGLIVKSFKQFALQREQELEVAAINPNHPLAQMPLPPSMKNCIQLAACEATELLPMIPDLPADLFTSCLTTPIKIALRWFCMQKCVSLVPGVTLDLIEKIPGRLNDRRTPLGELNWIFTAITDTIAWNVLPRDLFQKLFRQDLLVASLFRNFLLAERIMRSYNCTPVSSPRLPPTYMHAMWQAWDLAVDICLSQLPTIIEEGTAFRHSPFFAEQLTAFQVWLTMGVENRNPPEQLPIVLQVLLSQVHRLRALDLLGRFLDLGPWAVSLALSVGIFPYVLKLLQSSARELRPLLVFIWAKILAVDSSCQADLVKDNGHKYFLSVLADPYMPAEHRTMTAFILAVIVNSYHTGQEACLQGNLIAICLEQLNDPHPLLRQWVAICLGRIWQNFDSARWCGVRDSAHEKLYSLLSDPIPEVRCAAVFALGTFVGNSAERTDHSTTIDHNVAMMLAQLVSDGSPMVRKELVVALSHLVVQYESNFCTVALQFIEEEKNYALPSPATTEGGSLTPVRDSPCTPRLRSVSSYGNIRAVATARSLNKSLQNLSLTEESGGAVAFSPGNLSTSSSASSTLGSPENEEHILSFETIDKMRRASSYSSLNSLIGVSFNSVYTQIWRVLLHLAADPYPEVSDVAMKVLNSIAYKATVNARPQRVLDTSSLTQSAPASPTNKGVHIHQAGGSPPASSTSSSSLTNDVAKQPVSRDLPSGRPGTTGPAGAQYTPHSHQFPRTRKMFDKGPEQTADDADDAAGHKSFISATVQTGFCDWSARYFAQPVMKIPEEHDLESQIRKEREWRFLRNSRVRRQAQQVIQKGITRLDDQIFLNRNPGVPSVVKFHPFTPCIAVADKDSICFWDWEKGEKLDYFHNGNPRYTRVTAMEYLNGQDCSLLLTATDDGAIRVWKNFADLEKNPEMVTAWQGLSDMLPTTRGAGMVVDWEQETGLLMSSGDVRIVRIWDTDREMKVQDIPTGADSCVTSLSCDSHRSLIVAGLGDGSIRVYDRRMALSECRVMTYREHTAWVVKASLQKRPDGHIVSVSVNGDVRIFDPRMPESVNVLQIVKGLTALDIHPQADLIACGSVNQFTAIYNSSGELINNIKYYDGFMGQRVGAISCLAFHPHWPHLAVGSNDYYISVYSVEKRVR
UniProt Q6R327: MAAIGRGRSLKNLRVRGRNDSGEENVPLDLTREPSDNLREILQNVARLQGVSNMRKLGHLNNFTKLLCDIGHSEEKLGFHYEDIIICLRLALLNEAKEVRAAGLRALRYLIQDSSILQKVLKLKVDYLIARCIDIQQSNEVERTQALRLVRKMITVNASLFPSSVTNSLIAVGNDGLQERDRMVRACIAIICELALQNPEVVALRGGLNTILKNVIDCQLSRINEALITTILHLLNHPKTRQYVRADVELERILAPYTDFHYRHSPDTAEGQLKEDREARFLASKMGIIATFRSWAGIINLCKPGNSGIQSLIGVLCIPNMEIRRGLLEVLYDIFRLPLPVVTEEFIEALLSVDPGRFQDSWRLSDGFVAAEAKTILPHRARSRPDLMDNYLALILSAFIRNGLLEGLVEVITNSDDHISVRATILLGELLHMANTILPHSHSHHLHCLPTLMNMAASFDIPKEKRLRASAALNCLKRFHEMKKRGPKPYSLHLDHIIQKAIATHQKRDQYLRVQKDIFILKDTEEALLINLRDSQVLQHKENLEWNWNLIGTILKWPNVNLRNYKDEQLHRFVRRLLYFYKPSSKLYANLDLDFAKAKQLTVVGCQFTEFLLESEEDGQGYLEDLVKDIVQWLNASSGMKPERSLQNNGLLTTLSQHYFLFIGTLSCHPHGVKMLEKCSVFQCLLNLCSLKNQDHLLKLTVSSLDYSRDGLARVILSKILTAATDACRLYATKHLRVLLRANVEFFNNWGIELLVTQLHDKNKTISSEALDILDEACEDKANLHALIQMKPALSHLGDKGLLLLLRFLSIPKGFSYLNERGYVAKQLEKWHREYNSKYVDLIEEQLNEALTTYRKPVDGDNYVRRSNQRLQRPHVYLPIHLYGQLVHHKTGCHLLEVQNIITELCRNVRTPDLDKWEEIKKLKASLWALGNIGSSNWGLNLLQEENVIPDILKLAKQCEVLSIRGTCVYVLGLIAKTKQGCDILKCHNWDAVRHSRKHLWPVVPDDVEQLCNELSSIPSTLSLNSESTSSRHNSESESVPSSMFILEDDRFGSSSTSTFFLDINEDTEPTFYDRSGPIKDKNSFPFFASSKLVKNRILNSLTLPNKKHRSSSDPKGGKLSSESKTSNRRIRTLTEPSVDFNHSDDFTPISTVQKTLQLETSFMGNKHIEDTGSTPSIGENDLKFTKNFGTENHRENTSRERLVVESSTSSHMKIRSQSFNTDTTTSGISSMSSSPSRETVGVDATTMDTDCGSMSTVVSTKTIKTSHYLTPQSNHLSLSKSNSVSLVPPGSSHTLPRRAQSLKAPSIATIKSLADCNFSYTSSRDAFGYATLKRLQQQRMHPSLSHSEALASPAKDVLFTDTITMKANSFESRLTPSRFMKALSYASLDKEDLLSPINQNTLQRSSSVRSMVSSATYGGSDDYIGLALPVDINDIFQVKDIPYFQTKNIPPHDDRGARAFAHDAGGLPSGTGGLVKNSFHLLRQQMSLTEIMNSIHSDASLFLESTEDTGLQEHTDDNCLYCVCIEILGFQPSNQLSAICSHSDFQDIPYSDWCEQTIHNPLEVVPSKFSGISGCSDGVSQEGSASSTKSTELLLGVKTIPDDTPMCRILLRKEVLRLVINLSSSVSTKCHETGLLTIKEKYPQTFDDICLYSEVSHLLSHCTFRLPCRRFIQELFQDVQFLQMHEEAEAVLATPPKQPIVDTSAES

Experiments:
[1] = target: raptor (human (endogenous in T24 and E6)) (UniProt Q8N122); assay: co-IP; anti-raptor or anti-rictor antibody on Dynabeads Protein G, cell lysates (500 ug-4 mg) 2 h at 25°C; T24 cells serum-starved, with or without 100 ng/ml EGF 10 min, or transfected with Gab1, raptor or rictor siRNA; immunoblot for mTOR, raptor or rictor, Gab1
[2] = target: rictor (human (endogenous in T24 and E6)) (UniProt Q6R327); assay: as above

B1: Grb2-associated binder 1 (Gab1) (protein, UniProt Q13480 1-694)
chain: MSGGEVVCSGWLRKSPPEKKLKRYAWKRRWFVLRSGRLTGDPDVLEYYKNDHAKKPIRIIDLNLCQQVDAGLTFNKKEFENSYIFDINTIDRIFYLVADSEEEMNKWVRCICDICGFNPTEEDPVKPPGSSLQAPADLPLAINTAPPSTQADSSSATLPPPYQLINVPPHLETLGIQEDPQDYLLLINCQSKKPEPTRTHADSAKSTSSETDCNDNVPSHKNPASSQSKHGMNGFFQQQMIYDSPPSRAPSASVDSSLYNLPRSYSHDVLPKVSPSSTEADGELYVFNTPSGTSSVETQMRHVSISYDIPPTPGNTYQIPRTFPEGTLGQTSKLDTIPDIPPPRPPKPHPAHDRSPVETCSIPRTASDTDSSYCIPTAGMSPSRSNTISTVDLNKLRKDASSQDCYDIPRAFPSDRSSSLEGFHNHFKVKNVLTVGSVSSEELDENYVPMNPNSPPRQHSSSFTEPIQEANYVPMTPGTFDFSSFGMQVPPPAHMGFRSSPKTPPRRPVPVADCEPPPVDRNLKPDRKVKPAPLEIKPLPEWEELQAPVRSPITRSFARDSSRFPMSPRPDSVHSTTSSSDSHDSEENYVPMNPNLSSEDPNLFGSNSLDGGSSPMIKPKGDKQVEYLDLDLDSGKSTPPRKQKSSGSGSSVADERVDYVVVDQQKTLALKSTREAWTDGRQSTESETPAKSVK
[1]
  binding: binds
[2]
  binding: binds
